Measured values published in paper PMC1064895.
The exact form of at least one protein or probe is not confirmed. Results from cells or extracts need not show a direct contact.

System: NF-kB p65 + NF-kB p50
Experiment: EMSA supershift
Conditions: nuclear extract, anti-CD3 + anti-CD28 stimulated RA PBMC, anti-p65 and anti-p50 each shift the band in separate lanes; 20 mM Tris-HCl pH 7.9, 50 mM KCl, 1 mM DTT, 0.5 mM EDTA, 5% glycerol, 1 mg/ml BSA, 0.2% NP-40, 50 ng/ul poly(dI-dC); 2 ug nuclear extract, 10 ng probe, 20 ul, 30 min; protein in an extract; label: 5'-32P on sense strand

“ATGACCTGGAAATACCCAAAATTC (double strand) [IL-17 promoter NF-kB site probe]”: binds.
